# Source: PubChem BioAssay AID256 (DTP/NCI, 2004)
# The list does not hold the whole screen: it gathers tests that were run many times, whatever their T/C, doses with no T/C, and many T/C values between a quarter and a half above the control. Further doses and runs are listed elsewhere. T/C: endpoint of the treated group in % of that of the vehicle group. Some entries give survivors of the animals treated and no T/C: the source files T/C as zero there, which appears to mark a toxic dose or a test without result, not a measured value. Some survivor counts are full or nearly so, which does not show that the dose was tolerated: the source hardly ever lists a survival T/C far under the control, and the zero likely stands for such cases as well. Counts of survivors are from the toxicity check (mostly the fifth day) where no day follows; animals may have died later. Schedules are NCI's codes, taken here to give the interval after Q, in days (D) or hours (H), and the number of doses after X. Some entries were tested several times; the results are listed from low to high. Where survival is the endpoint, the PubChem record calls one and a half times the control and up active, and a quarter to a half above the control has no call in these data; cut-offs in other NCI protocols can differ. Some T/C values carry the count of animals alive at the toxicity check (mostly the fifth day); without a count, all were alive then.
# Tested on: CD2F1 mice, L1210 leukemia ip, survival T/C
# Test: NCI In Vivo Anticancer Drug Screen. Data for tumor model L1210 Leukemia (intraperitoneal) in CD2F1 (CDF1) mice
# Details: higher T/C = longer survival
# Procedure, shortened: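 Read-out first: treated-group measurement over vehicle-control measurement, expressed as a ratio. Animals bore a transplanted tumor line and were dosed with compound or vehicle.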
# [1] = T/C endpoint: median survival time, dose: 225.0 mg/kg/injection, schedule: Q04DX003 (ip), vehicle: saline
# [2] = T/C endpoint: mean survival time, dose: 100.0 mg/kg/injection, schedule: Q04DX003 (ip), vehicle: saline
# [3] = T/C endpoint: mean survival time, dose: 200.0 mg/kg/injection, schedule: Q04DX003 (ip), vehicle: saline with Tween-80
# [4] = T/C endpoint: mean survival time, dose: 200.0 mg/kg/injection, schedule: Q04DX003 (ip), vehicle: saline
# [5] = T/C endpoint: mean survival time, dose: 300.0 mg/kg/injection, schedule: Q01DX001 (ip), vehicle: saline
# [6] = T/C endpoint: mean survival time, dose: 6.25 mg/kg/injection, schedule: Q01DX009 (ip), vehicle: saline
# [7] = T/C endpoint: mean survival time, dose: 12.5 mg/kg/injection, schedule: Q01DX009 (ip), vehicle: saline
# [8] = T/C endpoint: mean survival time, dose: 100.0 mg/kg/injection, schedule: Q01DX009 (ip), vehicle: saline with Tween-80
# [9] = T/C endpoint: mean survival time, dose: 400.0 mg/kg/injection, schedule: Q04DX003 (ip), vehicle: saline with Tween-80
# [10] = T/C endpoint: mean survival time, dose: 400.0 mg/kg/injection, schedule: Q04DX003 (ip), vehicle: saline
compound,measurement,setting,value
O=C[C@@H](CO)O[C@H](C=O)c1c[nH]c(=O)[nH]c1=O,T/C,"T/C endpoint: median survival time, dose: 5.0 mg/kg/injection, schedule: Q01DX009 (ip), vehicle: saline",125 % of control
same,T/C,"T/C endpoint: median survival time, dose: 6.25 mg/kg/injection, schedule: Q01DX009 (ip), vehicle: water",126 % of control
same,T/C,"T/C endpoint: median survival time, dose: 10.0 mg/kg/injection, schedule: Q01DX009 (ip), vehicle: saline",134 % of control
same,T/C,"T/C endpoint: median survival time, dose: 20.0 mg/kg/injection, schedule: Q01DX009 (ip), vehicle: saline",139 % of control
same,T/C,"T/C endpoint: median survival time, dose: 25.0 mg/kg/injection, schedule: Q01DX009 (ip), vehicle: saline",135 % of control
same,T/C,"T/C endpoint: median survival time, dose: 25.0 mg/kg/injection, schedule: Q01DX009 (ip), vehicle: water",142 % of control
same,T/C,"T/C endpoint: median survival time, dose: 44.0 mg/kg/injection, schedule: Q04DX003 (ip), vehicle: saline","131, 137, 150 % of control"
same,T/C,"T/C endpoint: median survival time, dose: 44.5 mg/kg/injection, schedule: Q04DX003 (ip), vehicle: saline",130 % of control
same,T/C,"T/C endpoint: median survival time, dose: 50.0 mg/kg/injection, schedule: Q01DX009 (ip), vehicle: water",136 % of control
same,T/C,"T/C endpoint: median survival time, dose: 67.0 mg/kg/injection, schedule: Q04DX003 (ip), vehicle: saline","140, 150, 152 % of control"
same,T/C,"T/C endpoint: median survival time, dose: 80.0 mg/kg/injection, schedule: Q04DX003 (ip), vehicle: saline",149 % of control [9 of 10 alive]
same,survivor count,"T/C endpoint: median survival time, dose: 100.0 mg/kg/injection, schedule: Q01DX009 (ip), vehicle: saline",3 of 6
same,T/C,"T/C endpoint: median survival time, dose: 100.0 mg/kg/injection, schedule: Q04DX003 (ip), vehicle: saline, evaluated on day 30","168, 172, 180 % of control"
same,T/C,"T/C endpoint: median survival time, dose: 100.0 mg/kg/injection, schedule: Q04DX003 (ip), vehicle: saline, evaluated on day 60",185 % of control
same,T/C,"T/C endpoint: median survival time, dose: 120.0 mg/kg/injection, schedule: Q04DX003 (ip), vehicle: saline",125 % of control
same,T/C,"T/C endpoint: median survival time, dose: 150.0 mg/kg/injection, schedule: Q04DX003 (ip), vehicle: saline, evaluated on day 30","180, 189, 191, 206, 208 % of control"
same,T/C,"T/C endpoint: median survival time, dose: 150.0 mg/kg/injection, schedule: Q04DX003 (ip), vehicle: saline, evaluated on day 60",180 and 222 % of control
same,survivor count,"T/C endpoint: median survival time, dose: 200.0 mg/kg/injection, schedule: Q01DX009 (ip), vehicle: saline",0 of 6
same,T/C,[1],131 % of control [4 of 6 alive]
same,survivor count,[1],"0 of 6, 3 of 6, 5 of 6"
same,survivor count,"T/C endpoint: median survival time, dose: 250.0 mg/kg/injection, schedule: Q04DX003 (ip), vehicle: saline",0 of 6
same,survivor count,"T/C endpoint: median survival time, dose: 400.0 mg/kg/injection, schedule: Q01DX009 (ip), vehicle: saline",0 of 6
same,survivor count,"T/C endpoint: median survival time, dose: 416.7 mg/kg/injection, schedule: Q04DX003 (ip), vehicle: saline",0 of 6
NCCCCS(=O)(=O)Nc1ccc(Nc2c3ccccc3nc3cc([N+](=O)[O-])ccc23)cc1,T/C,"T/C endpoint: mean survival time, dose: 25.0 mg/kg/injection, schedule: Q01DX009 (ip), vehicle: saline with Tween-80",146 % of control
same,T/C,[2],130 % of control
same,T/C,[3],138 % of control [5 of 6 alive]
same,T/C,[4],133 % of control
CC(=O)OC1C(O)C(OC(=O)c2ccccc2)C(OC(C)=O)C(OC(C)=O)C1OC(C)=O (stereo not given),survivor count,"T/C endpoint: mean survival time, dose: 100.0 mg/kg/injection, schedule: Q01DX009 (ip), vehicle: Klucel (hydroxypropylcellulose) (HPC)",6 of 6
COc1ccc2nc3cc(Cl)ccc3c(NCCC[N+](C)(C)CCCCCCCCCCCCCCCC[N+](C)(C)CCCNc3c4ccc(Cl)cc4nc4ccc(OC)cc34)c2c1,survivor count,"T/C endpoint: mean survival time, dose: 100.0 mg/kg/injection, schedule: Q01DX009 (ip), vehicle: other",0 of 6
same,survivor count,"T/C endpoint: mean survival time, dose: 200.0 mg/kg/injection, schedule: Q01DX009 (ip), vehicle: other",0 of 6
same,survivor count,"T/C endpoint: mean survival time, dose: 400.0 mg/kg/injection, schedule: Q01DX009 (ip), vehicle: other",0 of 6
[Cl][Pt+2][Cl].[NH-]c1ccc([N+](=O)[O-])cc1[NH-],survivor count,"T/C endpoint: mean survival time, dose: 160.0 mg/kg/injection, schedule: Q01DX009 (ip), vehicle: saline with Tween-80",2 of 8
same,survivor count,"T/C endpoint: mean survival time, dose: 320.0 mg/kg/injection, schedule: Q01DX009 (ip), vehicle: saline with Tween-80",0 of 8
Cc1cccc[n+]1Cc1ccccc1,survivor count,"T/C endpoint: mean survival time, dose: 75.0 mg/kg/injection, schedule: Q01DX001 (ip), vehicle: saline",2 of 6
same,survivor count,"T/C endpoint: mean survival time, dose: 150.0 mg/kg/injection, schedule: Q01DX001 (ip), vehicle: saline",0 of 6
same,survivor count,[5],6 of 6
CCN(CC)CCOc1ccc2c(c1)C(=O)c1cc(OCCN(CC)CC)ccc1-2,survivor count,"T/C endpoint: mean survival time, dose: 100.0 mg/kg/injection, schedule: Q01DX009 (ip), vehicle: saline",3 of 6
Cc1ccc(S(=O)(=O)Nc2ccc(Cl)c(Cl)c2)cc1,survivor count,"T/C endpoint: mean survival time, dose: 400.0 mg/kg/injection, schedule: Q01DX009 (ip), vehicle: Klucel (hydroxypropylcellulose) (HPC)",6 of 6
COc1cc2c(c(OC)c1O)-c1ccc(OC)c(=O)cc1[C@@H](NC(C)=O)CC2,T/C,[6],135 % of control
same,T/C,"T/C endpoint: mean survival time, dose: 10.0 mg/kg/injection, schedule: Q01DX005 (ip), vehicle: Klucel (hydroxypropylcellulose) (HPC)",126 % of control
same,T/C,[7],142 % of control
same,survivor count,"T/C endpoint: mean survival time, dose: 25.0 mg/kg/injection, schedule: Q01DX009 (ip), vehicle: saline",3 of 6
O=S(CCO)c1c(Cl)c(Cl)c(Cl)c(Cl)c1Cl (stereo not given),survivor count,"T/C endpoint: mean survival time, dose: 400.0 mg/kg/injection, schedule: Q04DX002 (ip), vehicle: saline with Tween-80",1 of 3
CCOP(=O)(OCC)ON1C(=O)c2cccc3cccc(c23)C1=O,survivor count,"T/C endpoint: mean survival time, dose: 6.25 mg/kg/injection, schedule: Q01DX009 (ip), vehicle: Klucel (hydroxypropylcellulose) (HPC)",3 of 3
same,survivor count,"T/C endpoint: mean survival time, dose: 12.5 mg/kg/injection, schedule: Q01DX009 (ip), vehicle: Klucel (hydroxypropylcellulose) (HPC)",3 of 3
O=C(O)C(O)C(O)C(OC1OC(CO)C(O)C(O)C1O)C(O)CO.[Br][Pt].[NH-]C1CCCCC1[NH-] (stereo not given),T/C,"T/C endpoint: median survival time, dose: 6.25 mg/kg/injection, schedule: Q04DX003 (ip), vehicle: saline",130 % of control
same,T/C,"T/C endpoint: median survival time, dose: 12.5 mg/kg/injection, schedule: Q04DX003 (ip), vehicle: saline",141 % of control
same,survivor count,"T/C endpoint: median survival time, dose: 100.0 mg/kg/injection, schedule: Q04DX003 (ip), vehicle: saline",1 of 6 and 4 of 6
CN1CC2C(O)CCC1CC2O (stereo not given),survivor count,"T/C endpoint: mean survival time, dose: 400.0 mg/kg/injection, schedule: Q04DX002 (ip), vehicle: saline",0 of 3
CC1C(=O)OC(C)(C)C1(C)C (stereo not given),survivor count,[8],2 of 6
same,survivor count,[3],5 of 6
same,survivor count,[9],0 of 6
Cc1c(C)c(C)c(CN2CCC(C)CC2)c(C)c1C,survivor count,[8],3 of 3 and 6 of 6
CC(CN)OCc1ccccc1 (stereo not given),survivor count,[2],6 of 6
same,survivor count,[4],1 of 6
same,survivor count,[10],0 of 6
CCOC(=O)/C(C#N)=C1\CCCc2ccccc21,survivor count,"T/C endpoint: mean survival time, dose: 400.0 mg/kg/injection, schedule: Q04DX003 (ip), vehicle: acetone",1 of 6
C=C(C)C1C2CC3(C)C4(CO4)C4OC4C3(O)C1C(=O)O2 (stereo not given),survivor count,"T/C endpoint: median survival time, dose: 4.0 mg/kg/injection, schedule: Q01DX009 (ip), vehicle: Klucel (hydroxypropylcellulose) (HPC)",0 of 6
Nc1nc2ccc(Cl)cc2[nH]1,survivor count,"T/C endpoint: mean survival time, dose: 200.0 mg/kg/injection, schedule: Q01DX009 (ip), vehicle: Klucel (hydroxypropylcellulose) (HPC)",1 of 3
O=CO.[Co],survivor count,"T/C endpoint: mean survival time, dose: 80.0 mg/kg/injection, schedule: Q01DX001 (ip), vehicle: saline",3 of 6
[CH3][Sn]([CH3])([Br])[CH2]CCBr,survivor count,"T/C endpoint: mean survival time, dose: 1.56 mg/kg/injection, schedule: Q01DX009 (ip), vehicle: saline with Tween-80",1 of 3
same,survivor count,"T/C endpoint: mean survival time, dose: 3.12 mg/kg/injection, schedule: Q01DX009 (ip), vehicle: saline",0 of 3
same,survivor count,[6],0 of 3
same,survivor count,[7],0 of 3
O=C(CSCCN1CCCCC1)N1c2ccccc2Sc2ccccc21,survivor count,[2],0 of 6
same,survivor count,[4],0 of 6
same,survivor count,[10],0 of 6
[NH-]c1ccccc1C(=O)O.[NH-]c1ccccc1C(=O)O.[Ni+2],survivor count,[9],5 of 6
CCCCC(C)(O)CC (stereo not given),survivor count,"T/C endpoint: mean survival time, dose: 400.0 mg/kg/injection, schedule: Q01DX009 (ip), vehicle: saline with Tween-80",1 of 6
O=C1C=CC(=O)C(Br)C1Br (stereo not given),survivor count,[5],1 of 6
